The results in this text go back to the supplement of paper PMC12067093, “Discovery and optimisation of a covalent ligand for TRIM25 and its application to targeted protein ubiquitination” (Chemical Science, 2025).

Protein sequences, listed by entry. Tags and fused reporters are not part of them. Lines headed by an entry give the natural chain unless they say otherwise; changes in a name come on top.
UniProt P16930: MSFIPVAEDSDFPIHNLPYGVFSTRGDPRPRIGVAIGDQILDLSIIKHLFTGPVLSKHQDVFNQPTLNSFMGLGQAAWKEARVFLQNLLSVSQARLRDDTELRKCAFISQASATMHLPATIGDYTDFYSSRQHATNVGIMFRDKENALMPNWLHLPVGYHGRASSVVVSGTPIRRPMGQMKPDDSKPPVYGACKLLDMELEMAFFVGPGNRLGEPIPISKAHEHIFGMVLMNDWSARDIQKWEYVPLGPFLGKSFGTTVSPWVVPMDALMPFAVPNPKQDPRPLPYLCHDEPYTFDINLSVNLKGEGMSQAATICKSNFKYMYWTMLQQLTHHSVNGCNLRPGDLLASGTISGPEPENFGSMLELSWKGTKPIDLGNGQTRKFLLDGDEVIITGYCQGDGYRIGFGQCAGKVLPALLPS
UniProt P19447: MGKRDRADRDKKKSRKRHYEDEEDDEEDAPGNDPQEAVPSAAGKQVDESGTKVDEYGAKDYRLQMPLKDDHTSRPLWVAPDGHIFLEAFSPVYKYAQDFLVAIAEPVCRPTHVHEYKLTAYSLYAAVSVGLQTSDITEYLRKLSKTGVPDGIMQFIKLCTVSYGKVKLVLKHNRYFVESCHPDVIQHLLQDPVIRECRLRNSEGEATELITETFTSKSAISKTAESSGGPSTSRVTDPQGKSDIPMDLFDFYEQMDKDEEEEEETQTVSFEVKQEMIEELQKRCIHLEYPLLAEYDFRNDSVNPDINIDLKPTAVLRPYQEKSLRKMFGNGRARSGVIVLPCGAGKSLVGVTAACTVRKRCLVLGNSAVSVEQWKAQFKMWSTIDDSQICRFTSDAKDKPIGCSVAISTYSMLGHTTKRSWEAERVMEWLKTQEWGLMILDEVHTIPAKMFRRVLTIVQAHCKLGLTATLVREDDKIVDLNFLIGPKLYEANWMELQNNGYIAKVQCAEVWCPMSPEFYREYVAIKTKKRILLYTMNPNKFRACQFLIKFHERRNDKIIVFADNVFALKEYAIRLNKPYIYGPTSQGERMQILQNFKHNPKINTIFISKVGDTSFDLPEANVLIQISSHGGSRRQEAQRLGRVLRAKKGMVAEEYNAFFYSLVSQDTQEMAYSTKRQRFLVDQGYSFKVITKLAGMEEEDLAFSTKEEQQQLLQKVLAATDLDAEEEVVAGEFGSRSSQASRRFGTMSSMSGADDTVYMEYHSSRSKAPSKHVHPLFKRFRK
UniProt Q96EK7: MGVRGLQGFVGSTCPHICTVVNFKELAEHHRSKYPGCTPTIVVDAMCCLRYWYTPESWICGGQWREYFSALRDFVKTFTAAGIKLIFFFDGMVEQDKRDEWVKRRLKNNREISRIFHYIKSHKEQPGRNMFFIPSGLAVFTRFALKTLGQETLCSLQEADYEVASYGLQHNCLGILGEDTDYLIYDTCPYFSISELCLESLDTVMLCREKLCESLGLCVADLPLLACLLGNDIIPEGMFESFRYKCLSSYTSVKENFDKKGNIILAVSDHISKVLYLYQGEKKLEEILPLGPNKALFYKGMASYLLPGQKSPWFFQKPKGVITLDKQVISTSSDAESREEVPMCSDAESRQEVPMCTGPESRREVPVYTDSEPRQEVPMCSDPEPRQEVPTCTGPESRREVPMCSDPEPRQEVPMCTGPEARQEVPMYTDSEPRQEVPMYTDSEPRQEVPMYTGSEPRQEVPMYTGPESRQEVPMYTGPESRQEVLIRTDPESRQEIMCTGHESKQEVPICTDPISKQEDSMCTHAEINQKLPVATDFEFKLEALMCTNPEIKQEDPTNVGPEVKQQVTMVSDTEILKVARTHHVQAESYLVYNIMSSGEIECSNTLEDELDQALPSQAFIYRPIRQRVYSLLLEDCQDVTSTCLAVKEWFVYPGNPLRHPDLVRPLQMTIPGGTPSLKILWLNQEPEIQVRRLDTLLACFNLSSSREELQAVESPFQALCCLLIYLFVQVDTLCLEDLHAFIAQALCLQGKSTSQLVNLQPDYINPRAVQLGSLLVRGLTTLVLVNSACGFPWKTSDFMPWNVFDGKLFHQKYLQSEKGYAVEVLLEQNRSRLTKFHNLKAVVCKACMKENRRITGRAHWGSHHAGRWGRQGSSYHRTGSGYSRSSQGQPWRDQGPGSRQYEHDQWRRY
UniProt Q6SJ93: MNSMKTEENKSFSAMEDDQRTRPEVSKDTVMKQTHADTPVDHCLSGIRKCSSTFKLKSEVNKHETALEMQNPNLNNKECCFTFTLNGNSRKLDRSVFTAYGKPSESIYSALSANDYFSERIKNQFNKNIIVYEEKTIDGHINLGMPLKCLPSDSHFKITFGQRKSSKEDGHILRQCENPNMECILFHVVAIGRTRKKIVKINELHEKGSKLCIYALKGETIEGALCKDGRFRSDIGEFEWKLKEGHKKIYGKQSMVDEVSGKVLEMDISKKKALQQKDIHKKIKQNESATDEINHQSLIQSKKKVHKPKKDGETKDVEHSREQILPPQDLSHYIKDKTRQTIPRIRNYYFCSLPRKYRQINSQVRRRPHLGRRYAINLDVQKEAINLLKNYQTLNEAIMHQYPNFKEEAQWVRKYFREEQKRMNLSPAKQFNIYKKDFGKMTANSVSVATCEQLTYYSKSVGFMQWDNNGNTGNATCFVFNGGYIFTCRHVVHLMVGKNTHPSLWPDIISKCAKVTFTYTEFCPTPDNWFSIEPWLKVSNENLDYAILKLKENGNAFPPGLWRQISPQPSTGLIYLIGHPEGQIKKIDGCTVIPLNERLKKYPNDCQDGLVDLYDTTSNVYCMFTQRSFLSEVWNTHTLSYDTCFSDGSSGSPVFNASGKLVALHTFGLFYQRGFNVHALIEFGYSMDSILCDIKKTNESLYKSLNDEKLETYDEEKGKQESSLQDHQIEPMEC
UniProt Q8TAG9: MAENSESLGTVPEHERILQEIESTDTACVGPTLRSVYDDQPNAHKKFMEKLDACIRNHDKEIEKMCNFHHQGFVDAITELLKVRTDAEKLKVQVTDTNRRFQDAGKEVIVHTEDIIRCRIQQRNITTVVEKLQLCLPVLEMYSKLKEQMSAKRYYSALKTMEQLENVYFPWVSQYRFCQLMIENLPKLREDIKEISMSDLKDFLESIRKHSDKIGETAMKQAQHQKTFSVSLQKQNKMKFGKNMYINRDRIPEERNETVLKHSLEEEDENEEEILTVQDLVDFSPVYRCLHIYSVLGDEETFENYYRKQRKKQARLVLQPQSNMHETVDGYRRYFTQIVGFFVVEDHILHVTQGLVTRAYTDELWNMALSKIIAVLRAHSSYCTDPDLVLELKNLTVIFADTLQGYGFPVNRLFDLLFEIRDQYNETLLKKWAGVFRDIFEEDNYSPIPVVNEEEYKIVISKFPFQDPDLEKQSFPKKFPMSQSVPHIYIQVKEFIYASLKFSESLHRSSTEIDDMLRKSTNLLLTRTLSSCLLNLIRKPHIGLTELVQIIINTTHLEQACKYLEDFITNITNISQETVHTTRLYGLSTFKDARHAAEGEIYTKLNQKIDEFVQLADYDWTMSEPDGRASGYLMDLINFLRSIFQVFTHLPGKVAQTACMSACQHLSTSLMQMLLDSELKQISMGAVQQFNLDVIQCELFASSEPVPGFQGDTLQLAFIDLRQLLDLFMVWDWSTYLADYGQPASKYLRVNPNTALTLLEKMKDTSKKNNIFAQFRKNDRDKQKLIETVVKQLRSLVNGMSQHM
UniProt P50548: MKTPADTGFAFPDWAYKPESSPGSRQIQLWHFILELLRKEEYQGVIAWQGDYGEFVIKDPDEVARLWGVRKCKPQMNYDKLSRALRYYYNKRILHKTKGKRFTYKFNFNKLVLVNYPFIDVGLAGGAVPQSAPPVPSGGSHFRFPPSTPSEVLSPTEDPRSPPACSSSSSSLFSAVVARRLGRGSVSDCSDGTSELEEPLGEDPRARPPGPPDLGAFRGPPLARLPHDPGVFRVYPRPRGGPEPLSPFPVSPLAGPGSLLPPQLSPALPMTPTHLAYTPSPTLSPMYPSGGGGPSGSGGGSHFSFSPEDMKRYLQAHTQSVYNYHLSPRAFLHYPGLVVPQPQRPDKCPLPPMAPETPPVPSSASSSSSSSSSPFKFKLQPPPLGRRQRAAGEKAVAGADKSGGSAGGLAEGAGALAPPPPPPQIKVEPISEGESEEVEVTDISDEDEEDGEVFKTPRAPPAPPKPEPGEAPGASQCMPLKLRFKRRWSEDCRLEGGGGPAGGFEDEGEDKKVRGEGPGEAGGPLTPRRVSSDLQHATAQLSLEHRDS
UniProt P13804: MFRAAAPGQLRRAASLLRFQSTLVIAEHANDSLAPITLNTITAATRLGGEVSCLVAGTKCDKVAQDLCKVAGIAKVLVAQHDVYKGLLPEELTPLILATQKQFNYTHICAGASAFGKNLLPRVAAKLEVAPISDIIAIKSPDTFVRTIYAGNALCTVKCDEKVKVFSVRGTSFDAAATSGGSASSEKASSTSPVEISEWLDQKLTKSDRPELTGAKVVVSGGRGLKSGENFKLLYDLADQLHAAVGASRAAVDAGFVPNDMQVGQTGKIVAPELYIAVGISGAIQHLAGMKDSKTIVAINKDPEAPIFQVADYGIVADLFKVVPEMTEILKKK
UniProt P10768: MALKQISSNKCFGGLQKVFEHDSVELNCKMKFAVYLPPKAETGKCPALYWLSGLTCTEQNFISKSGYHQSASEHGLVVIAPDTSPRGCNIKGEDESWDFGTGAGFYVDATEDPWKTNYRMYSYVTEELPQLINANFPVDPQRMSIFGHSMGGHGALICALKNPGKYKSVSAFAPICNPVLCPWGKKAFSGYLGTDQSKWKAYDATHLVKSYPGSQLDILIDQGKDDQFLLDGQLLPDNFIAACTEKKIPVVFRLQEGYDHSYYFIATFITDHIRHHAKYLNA
UniProt O00471: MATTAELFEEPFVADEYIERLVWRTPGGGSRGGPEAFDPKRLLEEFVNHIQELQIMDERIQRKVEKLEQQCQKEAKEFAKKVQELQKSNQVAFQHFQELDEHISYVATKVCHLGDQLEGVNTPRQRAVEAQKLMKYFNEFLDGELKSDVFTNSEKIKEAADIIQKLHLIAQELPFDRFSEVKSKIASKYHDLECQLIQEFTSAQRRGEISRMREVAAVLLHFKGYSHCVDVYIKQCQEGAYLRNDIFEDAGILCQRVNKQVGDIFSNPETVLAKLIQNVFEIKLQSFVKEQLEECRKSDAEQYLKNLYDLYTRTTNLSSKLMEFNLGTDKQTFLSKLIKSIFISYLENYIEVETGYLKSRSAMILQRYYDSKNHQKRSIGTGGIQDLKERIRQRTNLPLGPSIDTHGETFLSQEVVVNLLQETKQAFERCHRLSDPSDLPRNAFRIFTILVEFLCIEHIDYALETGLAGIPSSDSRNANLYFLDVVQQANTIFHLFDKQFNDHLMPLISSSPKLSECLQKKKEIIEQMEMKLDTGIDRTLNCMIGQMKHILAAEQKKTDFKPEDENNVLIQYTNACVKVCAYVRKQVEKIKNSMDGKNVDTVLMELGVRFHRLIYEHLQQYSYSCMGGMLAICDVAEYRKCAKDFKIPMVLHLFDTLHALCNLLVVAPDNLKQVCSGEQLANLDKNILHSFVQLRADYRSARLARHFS
UniProt Q01469, whole entry, looked up: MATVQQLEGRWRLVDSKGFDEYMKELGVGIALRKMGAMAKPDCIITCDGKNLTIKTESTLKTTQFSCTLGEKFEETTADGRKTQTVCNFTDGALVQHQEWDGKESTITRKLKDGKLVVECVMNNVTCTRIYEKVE
UniProt Q8IV48: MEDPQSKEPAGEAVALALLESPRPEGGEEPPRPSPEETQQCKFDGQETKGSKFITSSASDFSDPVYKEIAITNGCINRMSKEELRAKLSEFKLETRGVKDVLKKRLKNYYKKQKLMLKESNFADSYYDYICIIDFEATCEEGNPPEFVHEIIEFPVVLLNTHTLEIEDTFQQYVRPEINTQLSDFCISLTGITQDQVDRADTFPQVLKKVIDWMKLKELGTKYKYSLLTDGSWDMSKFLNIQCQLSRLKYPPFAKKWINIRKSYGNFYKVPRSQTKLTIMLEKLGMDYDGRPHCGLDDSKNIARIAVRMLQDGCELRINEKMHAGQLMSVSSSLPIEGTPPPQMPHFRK
UniProt Q9NRY5: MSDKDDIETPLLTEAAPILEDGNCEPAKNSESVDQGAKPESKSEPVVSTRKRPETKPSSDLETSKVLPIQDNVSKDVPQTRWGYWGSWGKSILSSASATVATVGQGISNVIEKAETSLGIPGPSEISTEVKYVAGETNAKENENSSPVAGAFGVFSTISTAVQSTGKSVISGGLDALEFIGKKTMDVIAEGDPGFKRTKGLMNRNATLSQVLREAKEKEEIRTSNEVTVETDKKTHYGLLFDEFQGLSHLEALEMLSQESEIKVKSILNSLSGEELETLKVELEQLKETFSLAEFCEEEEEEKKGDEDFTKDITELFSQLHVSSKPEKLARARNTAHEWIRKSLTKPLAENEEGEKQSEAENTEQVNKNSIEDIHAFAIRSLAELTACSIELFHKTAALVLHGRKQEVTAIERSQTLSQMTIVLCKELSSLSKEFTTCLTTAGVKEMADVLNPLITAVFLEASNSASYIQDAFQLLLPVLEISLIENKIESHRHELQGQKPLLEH

The list shows a part of the results.

Compound in this experiment: CC1Cc2ccccc2N1C(=O)C1CCCN(C1)C(=O)CCl (mixture of isomers) [TRIM25 ligand 11 (diastereomer mixture)]
The experiment can be described thus: probe-labelled cysteine peptide fold change vs DMSO (competition) (log2 fold change); higher = less target engagement (more negative = stronger competition). As to conditions: THP-1, incubation time: 4 h.
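Further: competitive chemoproteomic profiling in live THP-1 cells with an iodoacetamide desthiobiotin (IA-DTB) probe, comparing probe-labelled peptide intensities in compound-treated cells against DMSO-treated controls.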

With “FAH_P16930_193_RPMGQMKPDDSKPPVYGACK (UniProt P16930)”, the “probe-labelled cysteine peptide fold change” value was -0.16 (10 µM) and -0.224 (50 µM).

For the target “ERCC3_P19447_390_MWSTIDDSQICR (UniProt P19447)”, the “probe-labelled cysteine peptide fold change” value turned out to be 0.0351 (10 µM) and 0.0856 (50 µM).

For “ERCC3_P19447_403_DKPIGCSVAISTYSMLGHTTK (UniProt P19447)”, the “probe-labelled cysteine peptide fold change” value by setting is: (10 µM) 0.005; (50 µM) 0.000247.

In the case of “FAM120B_Q96EK7_344_QVISTSSDAESREEVPMCSDAESR (UniProt Q96EK7)”, the “probe-labelled cysteine peptide fold change” value is -0.109 (10 µM) and -0.27 (50 µM).

Turning to “ESYT2_A0FGR8_181_ACDLPAWVHFPDTERAEWLNK (UniProt A0FGR8)”, the “probe-labelled cysteine peptide fold change” value is -0.246 (10 µM) and -0.0526 (50 µM).

In the case of “FAAP100_Q0VG06_309_TEPQAAEAAENFLPDEDVHCDCLVAFGHHGR (UniProt Q0VG06)”, the “probe-labelled cysteine peptide fold change” value by setting is: (10 µM) -0.157; (50 µM) 0.0565.

In the case of “FAM111B_Q6SJ93_590_IDGCTVIPLNER (UniProt Q6SJ93)”, the “probe-labelled cysteine peptide fold change” value was -0.0745 (10 µM) and -0.147 (50 µM).

Regarding “EXOC7_Q9UPT5_667_GFNDGLEELCK (UniProt Q9UPT5)”, the “probe-labelled cysteine peptide fold change” value was -0.0337 (10 µM) and -0.054 (50 µM).

Take “EXOC6_Q8TAG9_532_TLSSCLLNLIR (UniProt Q8TAG9)”: the “probe-labelled cysteine peptide fold change” value is -0.0034 (10 µM) and 0.132 (50 µM).

As to “FAM120B_Q96EK7_18_GLQGFVGSTCPHICTVVNFK (UniProt Q96EK7)”, the “probe-labelled cysteine peptide fold change” value (10 µM) is -0.00242 and the “probe-labelled cysteine peptide fold change” value (50 µM) was found to be 0.184.

For the target “FAM120A_Q9NZB2_919_VAAASGHCGAFSGSDSSR (UniProt Q9NZB2)”, the “probe-labelled cysteine peptide fold change” value is, setting by setting: (10 µM) 0.103; (50 µM) -0.171.

As for “ESYT1_Q9BSJ8_635_GSSVDAPPRPCHTTPDSQFGTEHVLR (UniProt Q9BSJ8)”, the “probe-labelled cysteine peptide fold change” value reads like this: (10 µM) 0.0884; (50 µM) 0.00472.

ERF_P50548_492_WSEDCR (UniProt P50548): the “probe-labelled cysteine peptide fold change” value (10 µM) stood at 0.189 and the “probe-labelled cysteine peptide fold change” value (50 µM) turned out to be 0.137.

With “EXOSC9_Q06265_61_VLGQVSCELVSPK (UniProt Q06265)”, the “probe-labelled cysteine peptide fold change” value is 0.0724 (10 µM) and 0.318 (50 µM).

As to “ETFA_P13804_53_LGGEVSCLVAGTK (UniProt P13804)”, the “probe-labelled cysteine peptide fold change” value by setting is: (10 µM) -0.00012; (50 µM) -0.00429.

As to “ESD_P10768_158_MSIFGHSMGGHGALICALK (UniProt P10768)”, the “probe-labelled cysteine peptide fold change” value runs as follows: (10 µM) -0.0198; (50 µM) -0.507.

With “FAM102B_Q5T8I3_64_FSFMCK (UniProt Q5T8I3)”, the “probe-labelled cysteine peptide fold change” value (10 µM) was 0.0741 and the “probe-labelled cysteine peptide fold change” value (50 µM) was 0.225.

Turning to “EXOSC5_Q9NQT4_33_HFACEQNLLSRPDGSASFLQGDTSVLAGVYGPAEVK (UniProt Q9NQT4)”, the “probe-labelled cysteine peptide fold change” value runs as follows: (10 µM) 0.193; (50 µM) -0.124.

For the target “EXOC5_O00471_236_QCQEGAYLR (UniProt O00471)”, the “probe-labelled cysteine peptide fold change” value is, setting by setting: (10 µM) 0.0906; (50 µM) 0.208.

For the target “ERLEC1_Q96DZ1_126_IESYWTYEVCHGK (UniProt Q96DZ1)”, the “probe-labelled cysteine peptide fold change” value worked out at 0.206 (10 µM) and 0.197 (50 µM).

On to “EXOC5_O00471_675_QVCSGEQLANLDK (UniProt O00471)”, for which the “probe-labelled cysteine peptide fold change” value (10 µM) is 0.0894 and the “probe-labelled cysteine peptide fold change” value (50 µM) came out at 0.0771.

Consider “FABP5_Q01469_67_TTQFSCTLGEKFEETTADGR (UniProt Q01469)”, for which the “probe-labelled cysteine peptide fold change” value is, setting by setting: (10 µM) -0.384; (50 µM) -0.0998.

As for “ERI1_Q8IV48_314_MLQDGCELR (UniProt Q8IV48)”, the “probe-labelled cysteine peptide fold change” value was 0.0325 (10 µM) and -0.0395 (50 µM).

“FADS1_O60427_407_VAPLVQSLCAK (UniProt O60427)”: the “probe-labelled cysteine peptide fold change” value is -0.135 (10 µM) and -0.124 (50 µM).

With “FABP5_Q01469_47_MGAMAKPDCIITCDGK (UniProt Q01469)”, the “probe-labelled cysteine peptide fold change” value reads like this: (10 µM) -0.0819; (50 µM) -0.168.

Consider “FAM114A2_Q9NRY5_425_SQTLSQMTIVLCK (UniProt Q9NRY5)”, for which the “probe-labelled cysteine peptide fold change” value (10 µM) was -0.0489 and the “probe-labelled cysteine peptide fold change” value (50 µM) was -0.0411.

For the target “FAHD1_Q6P587_129_SFTASCPVSAFVPK (UniProt Q6P587)”, the “probe-labelled cysteine peptide fold change” value is 0.016 (10 µM) and -0.0515 (50 µM).

Turning to “ERI3_O43414_313_GLSLQHIGRPHSGIDDCK (UniProt O43414)”, the “probe-labelled cysteine peptide fold change” value is, setting by setting: (10 µM) 0.00506; (50 µM) -0.0155.

For the target “FAM111A_Q96PZ2_36_EQQNNCSTSLMR (UniProt Q96PZ2)”, the “probe-labelled cysteine peptide fold change” value reads like this: (10 µM) -0.0357; (50 µM) -0.0911.

Consider “ESD_P10768_28_VFEHDSVELNCK (UniProt P10768)”, for which the “probe-labelled cysteine peptide fold change” value was 0.0669 (10 µM) and -0.217 (50 µM).
